The target in the experiment is CD21 on Raji B lymphoblastoid cells (human) (UniProt P20023). Put plainly: summary of the Raji cell binding experiments of the filing.

Protein sequences, listed by entry. Tags and fused reporters are not part of them. Residues count along the entry.
UniProt P20023, residues 21-1033: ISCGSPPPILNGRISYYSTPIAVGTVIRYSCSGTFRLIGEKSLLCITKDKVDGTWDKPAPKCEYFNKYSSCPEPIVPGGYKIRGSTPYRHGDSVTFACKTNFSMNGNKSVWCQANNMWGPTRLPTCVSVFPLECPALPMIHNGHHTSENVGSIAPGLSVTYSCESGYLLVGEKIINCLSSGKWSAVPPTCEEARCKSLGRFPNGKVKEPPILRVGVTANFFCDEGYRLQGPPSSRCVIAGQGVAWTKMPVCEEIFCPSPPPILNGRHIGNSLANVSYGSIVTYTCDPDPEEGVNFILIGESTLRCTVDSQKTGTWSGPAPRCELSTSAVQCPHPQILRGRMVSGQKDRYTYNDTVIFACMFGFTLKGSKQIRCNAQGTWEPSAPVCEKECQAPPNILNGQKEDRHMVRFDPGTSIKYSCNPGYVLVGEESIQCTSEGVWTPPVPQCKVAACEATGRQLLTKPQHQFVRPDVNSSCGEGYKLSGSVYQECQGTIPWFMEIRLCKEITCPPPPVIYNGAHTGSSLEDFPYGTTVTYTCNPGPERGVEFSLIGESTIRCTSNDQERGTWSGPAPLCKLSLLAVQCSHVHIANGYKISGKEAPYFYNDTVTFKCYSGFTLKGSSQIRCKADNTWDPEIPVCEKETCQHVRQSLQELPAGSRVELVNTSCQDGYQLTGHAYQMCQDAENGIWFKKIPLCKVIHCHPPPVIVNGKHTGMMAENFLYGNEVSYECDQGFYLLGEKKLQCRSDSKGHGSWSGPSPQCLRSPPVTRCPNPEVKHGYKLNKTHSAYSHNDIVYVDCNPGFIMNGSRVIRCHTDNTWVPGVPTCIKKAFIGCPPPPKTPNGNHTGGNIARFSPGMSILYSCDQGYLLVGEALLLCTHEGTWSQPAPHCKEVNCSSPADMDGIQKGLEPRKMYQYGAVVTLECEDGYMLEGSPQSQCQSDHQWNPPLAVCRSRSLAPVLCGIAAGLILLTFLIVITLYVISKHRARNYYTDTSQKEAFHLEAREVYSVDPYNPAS
UniProt P01027, residues 1006-1302: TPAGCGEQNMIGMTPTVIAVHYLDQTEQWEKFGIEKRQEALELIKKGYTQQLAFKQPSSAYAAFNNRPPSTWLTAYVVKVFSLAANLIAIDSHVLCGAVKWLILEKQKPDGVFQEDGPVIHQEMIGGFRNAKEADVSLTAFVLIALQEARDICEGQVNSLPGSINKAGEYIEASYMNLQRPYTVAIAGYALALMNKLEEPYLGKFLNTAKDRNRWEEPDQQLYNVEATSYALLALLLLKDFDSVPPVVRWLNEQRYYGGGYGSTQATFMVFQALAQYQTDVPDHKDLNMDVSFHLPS

These are yes or no findings as the source states them, for the method shown. Some entries that bind do so weakly or less than the wild type.

With “mouse C3d (from UniProt P01027 1006-1302) (ligand)”, the binding result is “binds”.

The values are drawn from patent US6891027.
